This is an account of results in PMC12442633.

No constants are given. Whether binding was seen depends on the method and setting. For part of these data: In cells and extracts the contact can be indirect. Some results given as binding are weak or reduced against the parent protein; the word gives no strength. For part of these data: Tags and fused reporters may be left off the sequences shown.

The target of one assay is T1, GST-USP8 (human) (UniProt P40818).
T1 sequence: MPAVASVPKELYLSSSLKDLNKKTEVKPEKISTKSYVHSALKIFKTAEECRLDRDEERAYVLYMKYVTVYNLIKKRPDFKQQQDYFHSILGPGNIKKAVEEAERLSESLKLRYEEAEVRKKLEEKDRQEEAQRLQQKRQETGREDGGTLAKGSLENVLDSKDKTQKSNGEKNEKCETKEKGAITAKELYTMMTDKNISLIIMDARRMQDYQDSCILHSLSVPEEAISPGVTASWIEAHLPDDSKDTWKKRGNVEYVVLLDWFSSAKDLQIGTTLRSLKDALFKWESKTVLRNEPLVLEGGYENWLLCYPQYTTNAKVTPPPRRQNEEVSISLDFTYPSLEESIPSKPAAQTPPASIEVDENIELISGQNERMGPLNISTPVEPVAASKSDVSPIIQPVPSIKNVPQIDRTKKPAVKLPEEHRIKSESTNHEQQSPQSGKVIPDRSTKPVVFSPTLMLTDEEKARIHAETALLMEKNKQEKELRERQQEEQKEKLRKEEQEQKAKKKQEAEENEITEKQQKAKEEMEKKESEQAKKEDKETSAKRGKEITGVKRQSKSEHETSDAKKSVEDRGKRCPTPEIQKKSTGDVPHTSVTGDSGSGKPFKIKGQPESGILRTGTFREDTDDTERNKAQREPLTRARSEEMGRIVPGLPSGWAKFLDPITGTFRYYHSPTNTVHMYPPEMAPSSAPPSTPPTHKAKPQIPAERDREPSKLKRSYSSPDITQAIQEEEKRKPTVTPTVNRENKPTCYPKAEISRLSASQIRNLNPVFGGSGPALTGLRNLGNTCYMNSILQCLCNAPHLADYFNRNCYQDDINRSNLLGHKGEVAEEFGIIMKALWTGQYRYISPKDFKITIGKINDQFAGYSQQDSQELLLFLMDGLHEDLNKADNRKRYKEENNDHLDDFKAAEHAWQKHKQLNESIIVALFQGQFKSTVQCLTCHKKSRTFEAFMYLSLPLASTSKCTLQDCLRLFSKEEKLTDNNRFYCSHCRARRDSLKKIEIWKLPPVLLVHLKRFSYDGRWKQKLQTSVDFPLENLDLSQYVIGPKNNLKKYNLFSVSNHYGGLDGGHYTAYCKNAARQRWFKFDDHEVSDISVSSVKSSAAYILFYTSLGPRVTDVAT
The assay is described as follows: pull-down; USP8 and MDA5 purified from BL21 E. coli; direct interaction; which protein was held is not stated; both purified.

Assay [1] concerns the target T2, USP8 (construct of the supplementary figures not shown) (human) (UniProt P40818).
T2 sequence: T1 sequence
The experiment in a line: co-IP; with or without EMCV infection; cells, baits and constructs not shown (Figure S5A,E).

For assay [2], the target named is T3, SFB-USP8 (human) (UniProt P40818).
T3 sequence: T1 sequence
The assay is described as follows: co-IP; HEK293T cells transfected with USP8, MDA5 and empty vector or the indicated dose of HA-AKT1; NP-40 lysis buffer; Anti-Myc or S-protein agarose at 4 °C overnight.

Assay [3] has as its target T3, SFB-USP8 (human). The assay is described as follows: pull-down; HEK293T cells co-transfected; NP-40 lysis buffer (20 mM Tris-HCl pH 8.0, 150 mM NaCl, 1% NP-40, 10% glycerol, 2 mM EDTA); S-protein agarose at 4 °C overnight; immunoblot.
The target in assay [4] is T4, MDA5 stably overexpressed in THP1 cells (UniProt Q9BYX4).
T4 sequence: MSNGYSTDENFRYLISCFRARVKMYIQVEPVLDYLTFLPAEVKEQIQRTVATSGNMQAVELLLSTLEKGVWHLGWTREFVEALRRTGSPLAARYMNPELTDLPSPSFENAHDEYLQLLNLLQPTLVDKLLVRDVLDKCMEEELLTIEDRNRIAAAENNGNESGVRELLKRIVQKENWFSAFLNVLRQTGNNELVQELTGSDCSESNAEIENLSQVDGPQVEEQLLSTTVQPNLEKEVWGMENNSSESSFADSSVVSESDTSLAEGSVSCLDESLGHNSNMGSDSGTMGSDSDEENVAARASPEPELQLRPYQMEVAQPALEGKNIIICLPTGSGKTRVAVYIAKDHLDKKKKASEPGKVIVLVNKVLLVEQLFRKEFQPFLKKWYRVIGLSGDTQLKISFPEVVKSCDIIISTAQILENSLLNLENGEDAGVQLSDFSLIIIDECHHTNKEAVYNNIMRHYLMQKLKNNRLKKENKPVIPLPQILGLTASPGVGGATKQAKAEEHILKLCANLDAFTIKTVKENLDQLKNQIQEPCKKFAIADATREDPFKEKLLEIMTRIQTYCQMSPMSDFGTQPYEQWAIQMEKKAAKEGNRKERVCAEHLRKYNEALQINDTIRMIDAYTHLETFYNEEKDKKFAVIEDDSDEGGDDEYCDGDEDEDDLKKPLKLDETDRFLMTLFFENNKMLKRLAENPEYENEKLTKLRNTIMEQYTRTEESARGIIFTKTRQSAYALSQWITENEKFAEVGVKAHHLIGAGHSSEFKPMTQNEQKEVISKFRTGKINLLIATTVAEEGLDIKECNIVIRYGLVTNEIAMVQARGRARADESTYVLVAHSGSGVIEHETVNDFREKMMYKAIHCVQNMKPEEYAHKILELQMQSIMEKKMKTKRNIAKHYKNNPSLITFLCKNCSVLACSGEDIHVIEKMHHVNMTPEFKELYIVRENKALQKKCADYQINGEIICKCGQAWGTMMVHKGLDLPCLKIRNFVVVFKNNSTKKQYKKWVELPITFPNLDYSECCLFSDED
The experiment in a line: pull-down; THP1 cells stably overexpressing MDA5, infected with EMCV as indicated (Poly(I:C) HMW in Figure S1F); endogenous USP8 detected.

The next assay has as its target T5, SFB-MDA5 (UniProt Q9BYX4).
T5 sequence: T4 sequence
The experiment in a line: pull-down; HEK293T cells co-transfected; NP-40 lysis buffer (20 mM Tris-HCl pH 8.0, 150 mM NaCl, 1% NP-40, 10% glycerol, 2 mM EDTA); S-protein agarose at 4 °C overnight; immunoblot. On the technique in general: In western blotting, separated proteins are transferred to a membrane and probed.

B1: His-MDA5 (protein, UniProt Q9BYX4 1-1025)
chain: T4 sequence
As to B1, the binding entry with GST-USP8 (human) was “binds”.

B2: MDA5 (construct of the supplementary figures not shown) (protein, UniProt Q9BYX4 1-1025)
chain: T4 sequence
With B2, in assay [1], the binding result is listed as “binds”.

B3: Myc-MDA5 (protein, UniProt Q9BYX4 1-1025)
chain: T4 sequence
Consider B3, for which the binding result with SFB-USP8 (human) [2] and in the assay with SFB-USP8 (human) [3] was “binds” in each case.

B4: endogenous USP8 (enzyme, UniProt P40818 1-1118)
chain: T1 sequence
In the case of B4, the binding result in assay [4] was “binds”.

B5: Myc-USP8 (enzyme, UniProt P40818 1-1118)
chain: T1 sequence
As to B5, in the assay with SFB-MDA5, the binding entry is listed as “binds”.
